The amount applied is not stated for every result.

The series has as its system MDA-MB-468. The series can be described thus: Cell viability in breast cancer cell lines. The conditions noted are these: MCF-10A IC50 / MDA-MB-468 IC50. The class given is cell-based. From the text:
Tables 5 and 6 show assessment of in vitro efficacy of I-3 in a panel of breast cancer cell lines.
For `C[C@@]1(O)CCC[C@H]1n1c(=O)c(C(F)F)cc2cnc(NC3CCN(S(C)(=O)=O)CC3)nc21` [PF-06873600], the “Safety window (Normal/cancer)” value is recorded as 10.

For the compound `Nc1nccc(-c2c[nH]c3nccc(Oc4cccc(F)c4)c23)n1` [I-3, 4-(4-(3-fluorophenoxy)-1H-pyrrolo[2,3-b]pyridin-3-yl)pyrimidin-2-amine], the “Safety window (Normal/cancer)” value turned out to be 10.

In the case of `CC[C@H](Nc1nc(NCc2cnc(C)cc2C)c2ncn(C(C)C)c2n1)[C@@H](C)O` [CYC065, reference compound], the “Safety window (Normal/cancer)” value was found to be 1.

The values above are taken from patent publication US20240261297A1, “ANTI-CDK INHIBITORS FOR CANCER TREATMENT” (St. John's Cancer Institute, priority 2021, published 2024).
